Results published in publication PMC6714217.
These are yes or no findings as the source states them, for the method shown. In cells and extracts the contact can be indirect. Some results given as binding are weak or reduced against the parent protein; the word gives no strength.

Target: T1, FOXM1 (human (endogenous in MDA-MB-231)) (UniProt Q08050)
T1 sequence: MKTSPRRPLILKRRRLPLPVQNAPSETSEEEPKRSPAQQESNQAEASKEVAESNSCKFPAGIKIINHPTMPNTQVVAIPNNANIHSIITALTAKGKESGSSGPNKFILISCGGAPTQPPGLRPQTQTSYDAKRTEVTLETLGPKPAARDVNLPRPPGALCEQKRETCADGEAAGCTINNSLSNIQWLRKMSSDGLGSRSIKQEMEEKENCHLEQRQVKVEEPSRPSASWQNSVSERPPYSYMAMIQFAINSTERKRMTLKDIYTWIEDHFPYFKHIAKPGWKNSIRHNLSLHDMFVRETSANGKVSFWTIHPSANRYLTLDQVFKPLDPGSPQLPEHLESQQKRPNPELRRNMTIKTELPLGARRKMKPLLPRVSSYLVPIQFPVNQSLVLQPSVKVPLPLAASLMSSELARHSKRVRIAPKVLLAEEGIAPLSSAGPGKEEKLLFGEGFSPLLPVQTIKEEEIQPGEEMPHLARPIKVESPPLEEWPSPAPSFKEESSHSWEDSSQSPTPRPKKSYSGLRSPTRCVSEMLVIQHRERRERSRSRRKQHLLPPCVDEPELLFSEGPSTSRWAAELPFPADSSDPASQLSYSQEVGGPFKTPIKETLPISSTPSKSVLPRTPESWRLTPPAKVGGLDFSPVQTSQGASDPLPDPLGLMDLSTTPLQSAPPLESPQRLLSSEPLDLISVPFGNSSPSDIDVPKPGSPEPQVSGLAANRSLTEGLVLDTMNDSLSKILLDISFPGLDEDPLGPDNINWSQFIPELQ
Experiment: co-IP; endogenous proteins in MDA-MB-231 lysate; IP buffer 50 mmol/L Tris pH 7.5, 100 mmol/L NaCl, 5 mmol/L EDTA, 5 mmol/L EGTA, 1% NP-40, 5% glycerol; which of the two was precipitated is not told

B1: Aurora kinase A (enzyme, UniProt O14965 1-403)
chain: MDRSKENCISGPVKATAPVGGPKRVLVTQQFPCQNPLPVNSGQAQRVLCPSNSSQRIPLQAQKLVSSHKPVQNQKQKQLQATSVPHPVSRPLNNTQKSKQPLPSAPENNPEEELASKQKNEESKKRQWALEDFEIGRPLGKGKFGNVYLAREKQSKFILALKVLFKAQLEKAGVEHQLRREVEIQSHLRHPNILRLYGYFHDATRVYLILEYAPLGTVYRELQKLSKFDEQRTATYITELANALSYCHSKRVIHRDIKPENLLLGSAGELKIADFGWSVHAPSSRRTTLCGTLDYLPPEMIEGRMHDEKVDLWSLGVLCYEFLVGKPPFEANTYQETYKRISRVEFTFPDFVTEGARDLISRLLKHNPSQRPMLREVLEHPWITANSSKPSNCQNKESASKQS
  binding: binds
